The supplement of paper PMC10382679
Single values of this set are uncertain.

B1: Rpb7; numbered along this chain (parent)
chain: MFFIKDLSLNITLHPSFFGPRMKQYLKTKLLEEVEGSCTGKFGYILCVLDYDNIDIQRGRILPTDGSAEFNVKYRAVVFKPFKGEVVDGTVVSCSQHGFEVQVGPMKVFVTKHLMPQDLTFNAGSNPPSYQSSEDVITIKSRIRVKIEGCISQVSSIHAIGSIKEDYLGAI

What was measured:
[1] = variants of: B1; assay: log2 fold change of mutant abundance, UV-irradiated vs unirradiated; higher = more UV resistant (enriched after UV); conditions: with Saccharomyces cerevisiae rad7Δ rad26Δ; UV dose (J/m2): 10; genetic background: rad7Δ rad26Δ rpb7Δ + plasmid RPB7 library; outgrowth: 10 cell divisions
Procedure: (§1)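 Error-prone PCR random mutant library of yeast RPB7 (codons 2-171) on a LEU2 plasmid, shuffled into rad7Δ rad26Δ S. cerevisiae (BJ5465 background) with genomic RPB7 deleted. Cells were irradiated with 10 J/m2 UV (254 nm) or left unirradiated and grown for 10 divisions. Plasmid RPB7 amplicons were Illumina-sequenced and per-codon amino-acid counts were compared UV vs no UV with NOISeq (3 repeats, ARSyNseq batch correction). Positive log2FC means enrichment after UV, i.e. UV resistance / derepressed TCR.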

[2] = variants of: B1; assay: NOISeq theta enrichment statistic, UV-irradiated vs unirradiated (dimensionless); higher = more UV resistant (enriched after UV); conditions: with Saccharomyces cerevisiae rad7Δ rad26Δ; UV dose (J/m2): 10; genetic background: rad7Δ rad26Δ rpb7Δ + plasmid RPB7 library; outgrowth: 10 cell divisions
Procedure: as §1

| Variant | log2 fold change of mutant abundance [1] | NOISeq theta enrichment statistic [2] |
| --- | --- | --- |
| MFFIKDLSLNITLHPSFFGPRMKQYLKMKLLEEVEGSCTGKFGYILCVLDYDNIDIQRGRILPTDGSAEFNVKYRAVVFKPFKGEVVDGTVVSCSQHGFEVQVGPMKVFVTKHLMPQDLTFNAGSNPPSYQSSEDVITIKSRIRVKIEGCISQVSSIHAIGSIKEDYLGAI | -1.02 | -0.801 |
| MFFIKDLSLNITLHPSFFGPRMKQYLKNKLLEEVEGSCTGKFGYILCVLDYDNIDIQRGRILPTDGSAEFNVKYRAVVFKPFKGEVVDGTVVSCSQHGFEVQVGPMKVFVTKHLMPQDLTFNAGSNPPSYQSSEDVITIKSRIRVKIEGCISQVSSIHAIGSIKEDYLGAI | -0.717 | -0.448 |
| MFFIKDLSLNITLHPSFFGPRMKQYLKPKLLEEVEGSCTGKFGYILCVLDYDNIDIQRGRILPTDGSAEFNVKYRAVVFKPFKGEVVDGTVVSCSQHGFEVQVGPMKVFVTKHLMPQDLTFNAGSNPPSYQSSEDVITIKSRIRVKIEGCISQVSSIHAIGSIKEDYLGAI | -0.266 | -0.276 |
| MFFIKDLSLNITLHPSFFGPRMKQYLKQKLLEEVEGSCTGKFGYILCVLDYDNIDIQRGRILPTDGSAEFNVKYRAVVFKPFKGEVVDGTVVSCSQHGFEVQVGPMKVFVTKHLMPQDLTFNAGSNPPSYQSSEDVITIKSRIRVKIEGCISQVSSIHAIGSIKEDYLGAI | -0.126 | -0.136 |
| MFFIKDLSLNITLHPSFFGPRMKQYLKRKLLEEVEGSCTGKFGYILCVLDYDNIDIQRGRILPTDGSAEFNVKYRAVVFKPFKGEVVDGTVVSCSQHGFEVQVGPMKVFVTKHLMPQDLTFNAGSNPPSYQSSEDVITIKSRIRVKIEGCISQVSSIHAIGSIKEDYLGAI | -0.111 | -0.159 |
| MFFIKDLSLNITLHPSFFGPRMKQYLKSKLLEEVEGSCTGKFGYILCVLDYDNIDIQRGRILPTDGSAEFNVKYRAVVFKPFKGEVVDGTVVSCSQHGFEVQVGPMKVFVTKHLMPQDLTFNAGSNPPSYQSSEDVITIKSRIRVKIEGCISQVSSIHAIGSIKEDYLGAI | -0.0236 | -0.0922 |
| MFFIKDLSLNITLHPSFFGPRMKQYLKTELLEEVEGSCTGKFGYILCVLDYDNIDIQRGRILPTDGSAEFNVKYRAVVFKPFKGEVVDGTVVSCSQHGFEVQVGPMKVFVTKHLMPQDLTFNAGSNPPSYQSSEDVITIKSRIRVKIEGCISQVSSIHAIGSIKEDYLGAI | 0.113 | 0.259 |
| MFFIKDLSLNITLHPSFFGPRMKQYLKTGLLEEVEGSCTGKFGYILCVLDYDNIDIQRGRILPTDGSAEFNVKYRAVVFKPFKGEVVDGTVVSCSQHGFEVQVGPMKVFVTKHLMPQDLTFNAGSNPPSYQSSEDVITIKSRIRVKIEGCISQVSSIHAIGSIKEDYLGAI | 1.56 | 0.719 |
| MFFIKDLSLNITLHPSFFGPRMKQYLKTILLEEVEGSCTGKFGYILCVLDYDNIDIQRGRILPTDGSAEFNVKYRAVVFKPFKGEVVDGTVVSCSQHGFEVQVGPMKVFVTKHLMPQDLTFNAGSNPPSYQSSEDVITIKSRIRVKIEGCISQVSSIHAIGSIKEDYLGAI | -0.186 | -0.544 |
| MFFIKDLSLNITLHPSFFGPRMKQYLKTLLLEEVEGSCTGKFGYILCVLDYDNIDIQRGRILPTDGSAEFNVKYRAVVFKPFKGEVVDGTVVSCSQHGFEVQVGPMKVFVTKHLMPQDLTFNAGSNPPSYQSSEDVITIKSRIRVKIEGCISQVSSIHAIGSIKEDYLGAI | -0.186 | -0.119 |
| MFFIKDLSLNITLHPSFFGPRMKQYLKTMLLEEVEGSCTGKFGYILCVLDYDNIDIQRGRILPTDGSAEFNVKYRAVVFKPFKGEVVDGTVVSCSQHGFEVQVGPMKVFVTKHLMPQDLTFNAGSNPPSYQSSEDVITIKSRIRVKIEGCISQVSSIHAIGSIKEDYLGAI | 0.547 | 0.279 |
| MFFIKDLSLNITLHPSFFGPRMKQYLKTNLLEEVEGSCTGKFGYILCVLDYDNIDIQRGRILPTDGSAEFNVKYRAVVFKPFKGEVVDGTVVSCSQHGFEVQVGPMKVFVTKHLMPQDLTFNAGSNPPSYQSSEDVITIKSRIRVKIEGCISQVSSIHAIGSIKEDYLGAI | 0.0467 | 0.118 |
| MFFIKDLSLNITLHPSFFGPRMKQYLKTPLLEEVEGSCTGKFGYILCVLDYDNIDIQRGRILPTDGSAEFNVKYRAVVFKPFKGEVVDGTVVSCSQHGFEVQVGPMKVFVTKHLMPQDLTFNAGSNPPSYQSSEDVITIKSRIRVKIEGCISQVSSIHAIGSIKEDYLGAI | 0.134 | 0.106 |
| MFFIKDLSLNITLHPSFFGPRMKQYLKTQLLEEVEGSCTGKFGYILCVLDYDNIDIQRGRILPTDGSAEFNVKYRAVVFKPFKGEVVDGTVVSCSQHGFEVQVGPMKVFVTKHLMPQDLTFNAGSNPPSYQSSEDVITIKSRIRVKIEGCISQVSSIHAIGSIKEDYLGAI | 0.36 | 0.504 |
| MFFIKDLSLNITLHPSFFGPRMKQYLKTRLLEEVEGSCTGKFGYILCVLDYDNIDIQRGRILPTDGSAEFNVKYRAVVFKPFKGEVVDGTVVSCSQHGFEVQVGPMKVFVTKHLMPQDLTFNAGSNPPSYQSSEDVITIKSRIRVKIEGCISQVSSIHAIGSIKEDYLGAI | -0.19 | -0.657 |
| MFFIKDLSLNITLHPSFFGPRMKQYLKTSLLEEVEGSCTGKFGYILCVLDYDNIDIQRGRILPTDGSAEFNVKYRAVVFKPFKGEVVDGTVVSCSQHGFEVQVGPMKVFVTKHLMPQDLTFNAGSNPPSYQSSEDVITIKSRIRVKIEGCISQVSSIHAIGSIKEDYLGAI | -0.0673 | -0.0365 |
| MFFIKDLSLNITLHPSFFGPRMKQYLKTTLLEEVEGSCTGKFGYILCVLDYDNIDIQRGRILPTDGSAEFNVKYRAVVFKPFKGEVVDGTVVSCSQHGFEVQVGPMKVFVTKHLMPQDLTFNAGSNPPSYQSSEDVITIKSRIRVKIEGCISQVSSIHAIGSIKEDYLGAI | 0.0568 | 0.0794 |

Two entries from above in another layout.
Variant	log2 fold change of mutant abundance [1]	NOISeq theta enrichment statistic [2]
MFFIKDLSLNITLHPSFFGPRMKQYLKRKLLEEVEGSCTGKFGYILCVLDYDNIDIQRGRILPTDGSAEFNVKYRAVVFKPFKGEVVDGTVVSCSQHGFEVQVGPMKVFVTKHLMPQDLTFNAGSNPPSYQSSEDVITIKSRIRVKIEGCISQVSSIHAIGSIKEDYLGAI	-0.111	-0.159
MFFIKDLSLNITLHPSFFGPRMKQYLKSKLLEEVEGSCTGKFGYILCVLDYDNIDIQRGRILPTDGSAEFNVKYRAVVFKPFKGEVVDGTVVSCSQHGFEVQVGPMKVFVTKHLMPQDLTFNAGSNPPSYQSSEDVITIKSRIRVKIEGCISQVSSIHAIGSIKEDYLGAI	-0.0236	-0.0922
